Results: PubChem BioAssay AID504848 (National Center for Advancing Translational Sciences (NCATS), 2011)
Hit rate of the full screen: of about 2,300 compounds, about 1,400 (61%) were called active. The set was probably picked from earlier hits. The inconclusive results got no clear call from the source; some entries with a clear call stand among them for comparison. Calls follow the shape of the dose curve; as a rule, active = well fitted inhibition curve with a large enough effect; inconclusive = small, poorly fitted or top-dose-only effect, or effect the other way; inactive = no such curve, though single readings can be large or run the other way. Potencies of inconclusive entries are doubtful fits and often do not repeat.
% is scaled to controls: 0 for no effect and ±100 for the full control effect; potency is read from the fitted curve at half-maximal effect.

Assay: Confirmation screen for delayed death inhibitors of the malarial parasite plastid, 96 hour incubation; also: nearly all actives have a fitted effect of over 60% in size
Details: P. falciparum luciferase growth in erythrocytes; series mostly up to 28.7 µM; activity change, negative = inhibition: at the top concentration
In short: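 Two-generation (96 h, 37 C) exposure of P. falciparum carrying an integrated firefly luciferase reporter in erythrocytes, 0.1% parasitemia and 2% hematocrit final, Albumax-supplemented RPMI. Luminescence decrease measures growth inhibition.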
With `Cc1c(NC(=S)NC(=O)C(C)(C)C)c(=O)n(-c2ccccc2)n1C` the “activity change, negative = inhibition” value was inactive: 1.52%.
With `Cc1onc(-c2ccccc2)c1C(=O)Nc1nc(-c2ccccc2)cs1` the Potency was inconclusive: 17.8 µM [inhibitor, single point].
With `O=C(CC(SCCO)c1ccc2c(c1)OCO2)c1cccs1` (stereo unspecified) the Potency was inconclusive: 12.6 µM [inhibitor, single point].
With `CCN(CC(=O)Nc1c(F)cccc1F)C(=O)c1ccc(S(=O)(=O)NCc2ccco2)cc1` the “activity change, negative = inhibition” value was inactive: -12.1%.
In the case of `CC(C)Cc1csc(NC(=O)C(C)C)c1C(=O)O`, the Potency is reported as inconclusive: 15.8 µM [inhibitor, single point].
For `Cc1ccc(OCC(=O)NCCCNC(=O)c2ccncc2)cc1`, the Potency was inconclusive: 7.94 µM [inhibitor, partial curve, poor fit].
For `O=C(Nc1c2c(nn1-c1ccc([N+](=O)[O-])cc1)CS(=O)(=O)C2)c1cccs1`, the Potency was inconclusive: 15.8 µM [inhibitor, single point].
With `O=C(Cc1cccc2ccccc12)Nc1ccccc1C(=O)O` the Potency was inconclusive: 0.891 µM [inhibitor, full curve, poor fit].
In the case of `CCC(=O)N1CCc2cc(S(=O)(=O)N3CCN(c4cc(C)ccc4C)CC3)ccc21`, the Potency is reported as inconclusive: 1.12 µM [inhibitor, full curve].
For `CC(C)C[C@H](NC(=O)c1nc[nH]c1C(=O)N1CCN(C(=O)OC(C)(C)C)CC1)C(=O)OC(C)(C)C`, the Potency was active: 15.8 µM.
For `CCN1CCN(c2ccc(S(=O)(=O)N3CCCCC3)cc2NC(=O)COc2cc(C)ccc2Cl)CC1`, the Potency was inconclusive: 6.31 µM [inhibitor, full curve, poor fit].
With `COc1cccc(/C=C/C(=O)NNC(=O)c2ccco2)c1OC` the Potency was inconclusive: 2.24 µM [activator, full curve, poor fit].
In the case of `O=C(O)CCNS(=O)(=O)c1cccc(Br)c1`, the “activity change, negative = inhibition” value is reported as inactive: 4.86%.
For `COCCNCCCCOc1ccc(Br)cc1C`, the Potency was inconclusive: 12.6 µM [inhibitor, single point].
For `CCOC(=O)c1c(C)[nH]c(N=Nc2ccccc2Cl)c1C`, the Potency was inconclusive: 15.8 µM [inhibitor, single point].
For `COc1cccc2sc(NNC(=O)c3nc4ccccc4s3)nc12`, the Potency was inconclusive: 11.2 µM [inhibitor, partial curve, poor fit].
In the case of `O=C(Oc1ccc2ccccc2c1Cl)N1CCCCCC1`, the Potency is reported as inconclusive: 1.26 µM [activator, partial curve].
In the case of `Cc1c(Cl)ccc2c(C(=O)Nc3cc(C(C)(C)C)on3)cc(-c3ccccn3)nc12`, the Potency is reported as inconclusive: 17.8 µM [inhibitor, single point].
For `CN(C)N(C(=O)c1cc(-c2cccs2)nn1-c1ccccc1)C1CCS(=O)(=O)C1` (stereo unspecified), the Potency was inconclusive: 6.31 µM [inhibitor, partial curve].
In the case of `O=c1c2ccccc2nnn1CSc1nnc(C2COc3ccccc3O2)n1-c1ccccc1` (stereo unspecified), the Potency is reported as inconclusive: 14.1 µM [inhibitor, single point].
With `O=C(Nc1ccc(C#Cc2ccccc2)cc1)C1CC1` the Potency was inconclusive: 0.631 µM [activator, full curve, poor fit].
With `CCOc1cc(/C=C/C(=O)Nc2ccc(C(=O)NCCN(CC)CC)cc2)ccc1OCC(C)C` the Potency was active: 2 µM.
With `COc1ccc(CNC(=O)C[C@H]2C(=O)N(C3CCCCC3)C[C@@H]2Cc2ccccc2)cc1` the Potency was inconclusive: 12.6 µM [inhibitor, partial curve, poor fit].
For `C/C1=C\CCC2C(/C=C(\C)CC1)OC(=O)C2CN1CCCCC1` (stereo unspecified), the Potency was inconclusive: 7.08 µM [inhibitor, full curve, poor fit].
For `N#CCCN1CCN(C2=NC(=O)C(=C3CCCCC3)S2)CC1`, the Potency was inconclusive: 3.98 µM [inhibitor, partial curve, poor fit].
In the case of `CC1Sc2ccc(S(=O)(=O)CCC(=O)N(C)Cc3ccco3)cc2NC1=O` (stereo unspecified), the Potency is reported as inconclusive: 12.6 µM [inhibitor, partial curve].
With `O=C(O)c1ccccc1Nc1ccc([N+](=O)[O-])cc1` the “activity change, negative = inhibition” value was inactive: 15.4%.
With `O=C(COC(=O)c1ccc(F)c(S(=O)(=O)N2CCOCC2)c1)Nc1ccc2[nH]c(=O)[nH]c2c1` the “activity change, negative = inhibition” value was inactive: -7.71%.
With `Fc1ccccc1N1CCN(c2ncnc3nc[nH]c23)CC1` the Potency was inconclusive: 2.82 µM [activator, partial curve, poor fit].
With `COc1ccc(C2=NN(C(=O)COC(=O)c3ccc(S(C)(=O)=O)c([N+](=O)[O-])c3)C(c3ccco3)C2)cc1` (stereo unspecified) the Potency was inconclusive: 14.1 µM [inhibitor, single point].
In the case of `Cn1c(=O)c2c([nH]c(=O)n2C)n(C)c1=O`, the “activity change, negative = inhibition” value is reported as inactive: -20.4%.
For `Cc1cccc(NC(=O)CSc2nc3ccccc3nc2N2CCCC2)c1`, the Potency was inconclusive: 15.8 µM [inhibitor, single point].
For `Cc1nc([N+](=O)[O-])c(Sc2nc3ccccc3n2C)n1Cc1ccccc1`, the Potency was inconclusive: 12.6 µM [inhibitor, partial curve, poor fit].
With `O=C(Cc1cn2ccsc2n1)OCc1ccccc1` the Potency was inconclusive: 0.355 µM [inhibitor, full curve, poor fit].
With `CCC(CC)N1CCN(Cc2nc3ccc([N+](=O)[O-])cc3c(=O)n2-c2ccccc2F)CC1` the “activity change, negative = inhibition” value was inactive: -22.7%.
In the case of `COc1cccc(NC(=O)CN2C(=O)NC3(CCCc4ccccc43)C2=O)c1` (stereo unspecified), the Potency is reported as active: 3.98 µM.
In the case of `Cc1cc(C)cc(C(=O)NC(CC(N)=O)c2ccc(NCC3CC3)c([N+](=O)[O-])c2)c1` (stereo unspecified), the Potency is reported as inconclusive: 0.01 µM [inhibitor, full curve, poor fit].
In the case of `COc1ccc(N2CC(O)=C(c3nc(-c4ccccc4)cs3)C2=N)cc1`, the Potency is reported as inconclusive: 14.1 µM [inhibitor, partial curve].
With `COc1cc(CN2CCN(S(=O)(=O)c3ccccc3)CC2)cc(OC)c1OC` the Potency was active: 2.24 µM.
For `O=C(O)CCn1c(-c2ccccc2)cc2c1CCCC2=O`, the “activity change, negative = inhibition” value was inactive: -11.5%.
With `COc1cccc(N2CCN(S(=O)(=O)c3ccc4c(c3)oc(=O)n4C)CC2)c1` the Potency was inconclusive: 4.47 µM [inhibitor, full curve].
For `O=C(Nc1ccc(NC(=O)C2CC2)cn1)c1ccccc1Cl`, the Potency was inconclusive: 2 µM [activator, full curve].
In the case of `O=C1C2CCCN2C(c2ccccc2)N1c1ccc(Cl)cc1` (stereo unspecified), the Potency is reported as inconclusive: 0.708 µM [inhibitor, full curve, poor fit].
In the case of `CN(C(=O)CN1C(=O)CCSc2ccc(S(=O)(=O)N3CCCC3)cc21)c1ccccc1`, the Potency is reported as active: 7.94 µM.
In the case of `CCOc1ccc(N(C)C(=O)CCc2nnc3ccc(N4CCCCC4)nn23)cc1`, the Potency is reported as active: 7.94 µM.
With `O=C(CN1CCCCC1)N/N=C/c1ccc(Cl)cc1` the “activity change, negative = inhibition” value was inactive: 6.26%.
For `Cc1c(NC(=O)COC(=O)c2cc(-c3ccc(-c4ccccc4)cc3)nc3ccccc23)c(=O)n(-c2ccccc2)n1C`, the Potency was inconclusive: 2 µM [activator, partial curve].
In the case of `COc1ccc(NS(=O)(=O)c2ccc(N3CCOCC3)c(NC(=O)c3ccc(OC)cc3)c2)cc1`, the Potency is reported as active: 11.2 µM.
In the case of `COc1cc2c(cc1OC)CN(CC(=O)Nc1ccc(S(=O)(=O)N3CCCC3)cc1)CC2`, the Potency is reported as active: 15.8 µM.
With `CC(C)N(Cc1nc2ccccc2c(=O)[nH]1)C(=O)c1ccc(NC(=O)CSc2nnnn2C)cc1` the Potency was inconclusive: 15.8 µM [inhibitor, partial curve, poor fit].
In the case of `O=C(Oc1ccc2ccccc2c1Br)N1CCCCCC1`, the Potency is reported as inconclusive: 2 µM [activator, partial curve].
In the case of `CC(C)C[C@@H](CN=[N+]=[N-])N1CCN(C)CCC1=O`, the Potency is reported as inconclusive: 12.6 µM [inhibitor, partial curve].
In the case of `Cc1cccc[n+]1CC(=O)c1ccc(NC(=O)c2ccccc2)cc1`, the Potency is reported as active: 5.01 µM.
In the case of `COc1cc(/C=N/NC(=O)c2cc(-c3ccccc3OC(C)C)nc3ccccc23)ccc1O`, the Potency is reported as inconclusive: 15.8 µM [inhibitor, partial curve, poor fit].
For `Cc1ccc(S(=O)(=O)C2(C(=O)N3CCCCCC3)CC2)cc1`, the “activity change, negative = inhibition” value was inactive: -5.14%.
With `CCOC(=O)c1c(S(=O)(=O)NCC(=O)Nc2cccc(C)c2C)c(C)n(C)c1C` the Potency was inconclusive: 20 µM [inhibitor, partial curve, poor fit].
With `CC(=O)c1cccc(NC(=O)COC(=O)c2ccc(S(C)(=O)=O)c([N+](=O)[O-])c2)c1` the Potency was inconclusive: 11.2 µM [inhibitor, partial curve].
With `CCC(=O)N1CCc2cc(Br)cc(S(=O)(=O)CC(=O)OC)c21` the Potency was inconclusive: 6.31 µM [inhibitor, partial curve].
With `O=C(Nc1ccc(O)cc1)C1CC=CCC1` (stereo unspecified) the Potency was inconclusive: 5.01 µM [inhibitor, full curve, poor fit].
In the case of `COc1ccc2c(c1OC)C(=O)N1N=C(c3ccccc3)CC21` (stereo unspecified), the Potency is reported as active: 2.24 µM.
In the case of `O=C(CCN1C(=O)/C(=C/c2ccccc2)SC1=S)NCCc1ccc(O)cc1`, the “activity change, negative = inhibition” value is reported as inactive: 14.2%.
In the case of `CCOc1ccc(-n2c(N)c(-c3nc4ccccc4n3C)c3nc4ccccc4nc32)cc1`, the Potency is reported as active: 3.98 µM.
In the case of `COc1cccc(N2CC(C(=O)Nc3nnc(SCCC4OCCO4)s3)CC2=O)c1` (stereo unspecified), the Potency is reported as inconclusive: 5.01 µM [inhibitor, full curve, poor fit].
For `CC(C)/C=C/CN1CCN(CCCc2ccccc2)C(CCO)C1` (stereo unspecified), the Potency was inconclusive: 15.8 µM [inhibitor, single point].
In the case of `CCNC(=O)NC(=O)C(C)OC(=O)c1oc2ccccc2c1CSC1CCCCC1` (stereo unspecified), the “activity change, negative = inhibition” value is reported as inactive: -18.8%.
With `CN(CCCN1CCOCC1)C(=O)c1ccc2nc(Cc3cccc(Cl)c3)oc2c1` the Potency was active: 11.2 µM.
